Data published in ChEMBL document CHEMBL2203216, “Fluoride enhances the activity of fungicides that destabilize cell membranes” (2012).
Converted amounts (≈) assume the structure as drawn.

Columns and labels:
Candida albicans [1] = experiment: Antifungal activity against Candida albicans SC5314 in presence of 30 mM sodium fluoride after 48 hrs; format: functional; details: SC5314, 48 h
Candida albicans [2] = experiment: Antifungal activity against Candida albicans SC5314 after 48 hrs; format: functional; details: SC5314, 48 h

C[C@@H]1[C@H](O)[C@@H](C)/C=C/C=C/C=C/C=C/C=C/C=C/C=C/[C@H](O[C@@H]2O[C@H](C)[C@@H](O)[C@H](N)[C@@H]2O)C[C@@H]2O[C@](O)(C[C@@H](O)C[C@@H](O)[C@H](O)CC[C@@H](O)C[C@@H](O)CC(=O)O[C@H]1C)C[C@H](O)[C@H]2C(=O)O [AMPHOTERICIN B]
MIC (Candida albicans [1]): 0.05 µM
MIC (Candida albicans [2]): 0.1 µM (≈ 0.0924 µg/mL)
